From PubChem BioAssay AID651640 (Broad Institute, 2012)
Hit rate of the full screen: of about 350,000 compounds, about 6,000 (1.7%) were called active. The shares of active, inactive and inconclusive entries below differ from those in the screen. Cut-off read from the data, not from the text of the source: active = CPE inhibition above about 20% (passing the limit was not always enough); inconclusive = no clear call, values can overlap the other calls; tested in BHK-21 cells.

assay: protection of cells from dengue 2 killing – plate reader, single concentration, primary screen (AID 651640); settings: DENV2-infected cells, cytopathic effect rescue, at 9.99 µM, active compounds read high;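 note: 0% = median of neutral control wells and 100% = median of positive control wells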

Structure (SMILES)	CPE inhibition
NC1=NC[C@H](Cc2ccc(O)cc2)N1CCc1cc(C(F)(F)F)cc(C(F)(F)F)c1	inconclusive: 35.8%
CS(=O)(=O)N(CC(=O)NCCSCc1ccccc1)c1ccccc1Cl	inconclusive: 33.9%
CCCNC(=O)N1C[C@H]2[C@@H](c3ccccc31)[C@@H](CO)N2C(=O)Nc1ccccc1	inactive: -0.316%
O=C(N/N=C1/CCS(=O)(=O)c2ccc(F)cc21)c1ccccn1	inconclusive: 24%
Cc1ccc(S(=O)(=O)Nc2ccc3c(c2)C(=O)N([C@@H](C)CO)C[C@@H](C)[C@@H](CN(C)S(=O)(=O)c2ccc(C)cc2)O3)cc1	inconclusive: 33.4%
CO[C@@H]1CN(C)C(=O)c2ccc(NC(=O)C3CCOCC3)cc2OC[C@H](C)N(Cc2nccs2)C[C@@H]1C	inconclusive: 24.6%
O=C(C[C@@H]1C=C[C@H](NC(=O)CC2CC2)[C@H](CO)O1)NCc1ccc(-c2ccccc2)cc1	inconclusive: 21.3%
C[C@@H]1CN([C@@H](C)CO)C(=O)c2cc(N(C)C)ccc2O[C@@H](C)CCCCO[C@@H]1CN(C)S(C)(=O)=O	inconclusive: 24.4%
Cn1cnc(S(=O)(=O)N2CC[C@@H]3[C@H](CO)Nc4ccc(-c5ccc(F)cc5)cc4[C@@H]32)c1	active: 46.2%
CCOC(=O)c1cn(CC)c2cc(N3CCN(C)CC3)c(F)cc2c1=O	inconclusive: 53.3%
O=C(c1ccccc1)N1CC[C@@H]2[C@H]1c1cc(-c3ccc(F)cc3)ccc1N[C@@H]2CO	active: 28.7%
CCCCn1c(NCc2cc(C)ccc2O)nc2ccccc21	inconclusive: 59.8%
C[C@H](CO)N1C[C@H](C)[C@@H](CN(C)CC2CCCCC2)Oc2c(NC(=O)C3CC3)cccc2C1=O	inactive: 19.7%
CSCCC(NC(=O)c1ccco1)C(=O)NCC1CCCO1 (stereo unspecified)	active: 66.5%
Nc1c(/C=C2/C=CC(=O)C(O)=C2)c(=O)nc2sc(CC(=O)N3CCOCC3)nn12	active: 30.8%
N#CCCN(Cc1ccccc1)S(=O)(=O)c1cccs1	inconclusive: 24.1%
C#CCOCCOCCOCCNc1nc(N2CCOCC2)nc(N2CCN(C(=O)CCCCCCCCCCNC(=O)[C@@H]([C@H](C)CC)n3cc(CCCCCN)nn3)CC2)n1	inactive: -6.26%
O=C(C[C@@H]1C/C=C\C[C@@H](Cc2ccc(F)cc2)C(=O)OC[C@@H]2CCCN2C1=O)N[C@H](CO)Cc1ccccc1	inconclusive: 28.3%
COc1ccc(/C(N)=N/OC(=O)c2ccco2)cc1	inactive: 1.63%
Cc1ccc([C@H]2C[C@H](n3cc(COC(=O)c4ccccc4)nn3)[C@@H](O)CN2C(=O)C2CCCCC2)cc1	active: 52.1%
O=C(NCc1ccncn1)[C@@H]1[C@@H](CO)[C@@H]2Cn3c(ccc(-c4ccccc4)c3=O)[C@@H]2N1CC1CC1	inactive: 5.87%
CCN(CC)C(=O)c1ccc(-c2cccs2)s1	inconclusive: 33.7%
CCC(=O)N1CCC2(CC1)CN(S(=O)(=O)c1ccccc1)[C@@H](CO)c1[nH]c3cc(OC)ccc3c12	active: 27.9%
C[C@@H]1CCCCO[C@H](CN(C)C(=O)NC2CCCCC2)[C@H](C)CN([C@@H](C)CO)C(=O)c2cc(NC(=O)Nc3ccc(C(F)(F)F)cc3)ccc2O1	active: 64.5%

Structure (SMILES)	CPE inhibition
CCc1cccc(NC(=O)CCc2c(C)nn(-c3ccc(N4CCCCC4)nn3)c2C)c1	inconclusive: 36.9%
Nc1ccc2ccccc2c1N=Nc1ccccc1	inconclusive: 23.6%
CC1(C(=O)NCc2ccccc2Br)CCN1Cc1c(F)cccc1F (stereo unspecified)	inconclusive: 24.4%
COc1ccccc1C(=O)NC(=O)COC(=O)CCOc1cc(C)ccc1C	inconclusive: 22.4%
CCCCn1c(N)c(N(CC)C(=O)c2ccc(Cl)c(Cl)c2)c(=O)[nH]c1=O	inconclusive: 35.4%
CCCCCCCCSC1=CC(=O)C(OC)=C(OC)C1=O	active: 70.6%
COc1ccc(OC)c(NC(=O)NNS(=O)(=O)c2ccc(C)cc2C)c1	active: 23.4%
CCC(C)NC(=O)C1CCC(=O)N(c2ccc3c(c2)OCO3)C1c1ccc(OC)cc1 (stereo unspecified)	inconclusive: 66.4%
CNc1nc(N)c([N+](=O)[O-])c(NCc2ccccc2)n1	active: 76.1%
O=C(C[C@@H]1C[C@@H]2c3cc(NC(=O)Nc4ccc(C(F)(F)F)cc4)ccc3O[C@@H]2[C@@H](CO)O1)NC1CCCCC1	inconclusive: 26.8%
C[C@@H]1CN([C@@H](C)CO)C(=O)c2cc(NC(=O)CCC(F)(F)F)ccc2O[C@@H]1CN(C)Cc1ccc(C(F)(F)F)cc1	inconclusive: 30.6%
NC(=O)c1ccsc1NC(=O)C1CCCCC1	inconclusive: 33.2%
CO[C@@H]1CN(C)C(=O)c2ccc(NC(=O)C3CC3)cc2OC[C@@H](C)N(Cc2cc(F)ccc2F)C[C@H]1C	inactive: -3.39%
Cc1ccc(Sc2ncccc2C(=O)NCc2cc([N+](=O)[O-])ccc2O)cc1C	active: 58.4%
CCOC(=O)c1ccc(S(=O)(=O)N2CCN(C(=O)c3cc4ccccc4o3)CC2)cc1	inconclusive: 33.8%
Cc1oc(-c2cccs2)cc1C(=O)N1CCC(C)(C(=O)NS(=O)(=O)C2CC2)C1 (stereo unspecified)	inconclusive: 46.1%
C/C(=N\Nc1nc2ccccc2[nH]1)c1ccc(Cl)s1	inconclusive: 29.5%
CCC(Oc1ccccc1)C(=O)Nc1cc(Cl)ccc1-n1cncn1 (stereo unspecified)	inconclusive: 84.9%
CN(C(=O)COC(=O)c1ccccc1NCc1ccco1)c1c(N)n(Cc2ccccc2)c(=O)[nH]c1=O	inconclusive: 39.7%
C[C@@H]1CN([C@H](C)CO)C(=O)Cc2cc(NC(=O)C3CCCCC3)ccc2O[C@@H]1CN(C)Cc1ccc(C(F)(F)F)cc1	active: 31.3%
C[C@@H](NC(=O)C[C@@H]1C=C[C@H](NC(=O)C2CCOCC2)[C@H](CO)O1)c1ccccc1	inconclusive: 24.7%
CCOC(=O)[C@H]1[C@H]2COc3ccc(OC)cc3[C@@H]2N2C(=O)CN(CC3CCCO3)C(=O)[C@@]12C (stereo partly specified)	inconclusive: 22.2%
COc1ccc(C(=O)N/N=C(/C)c2cccc(NC(=O)c3ccncc3)c2)cc1OC	inconclusive: 41.5%
O=C(C[C@H]1C=C[C@@H](NC(=O)CCN2CCCCC2)[C@H](CO)O1)Nc1ccccc1	inactive: 15.4%

Sorted by SMILES length (rising): 14 of the compounds above
Structure (SMILES)	CPE inhibition
NC(=O)c1ccsc1NC(=O)C1CCCCC1	inconclusive: 33.2%
CCCCCCCCSC1=CC(=O)C(OC)=C(OC)C1=O	active: 70.6%
C/C(=N\Nc1nc2ccccc2[nH]1)c1ccc(Cl)s1	inconclusive: 29.5%
CC1(C(=O)NCc2ccccc2Br)CCN1Cc1c(F)cccc1F (stereo unspecified)	inconclusive: 24.4%
CCC(Oc1ccccc1)C(=O)Nc1cc(Cl)ccc1-n1cncn1 (stereo unspecified)	inconclusive: 84.9%
COc1ccc(C(=O)N/N=C(/C)c2cccc(NC(=O)c3ccncc3)c2)cc1OC	inconclusive: 41.5%
CCC(C)NC(=O)C1CCC(=O)N(c2ccc3c(c2)OCO3)C1c1ccc(OC)cc1 (stereo unspecified)	inconclusive: 66.4%
CCOC(=O)c1ccc(S(=O)(=O)N2CCN(C(=O)c3cc4ccccc4o3)CC2)cc1	inconclusive: 33.8%
O=C(C[C@H]1C=C[C@@H](NC(=O)CCN2CCCCC2)[C@H](CO)O1)Nc1ccccc1	inactive: 15.4%
C[C@@H](NC(=O)C[C@@H]1C=C[C@H](NC(=O)C2CCOCC2)[C@H](CO)O1)c1ccccc1	inconclusive: 24.7%
CO[C@@H]1CN(C)C(=O)c2ccc(NC(=O)C3CC3)cc2OC[C@@H](C)N(Cc2cc(F)ccc2F)C[C@H]1C	inactive: -3.39%
C[C@@H]1CN([C@H](C)CO)C(=O)Cc2cc(NC(=O)C3CCCCC3)ccc2O[C@@H]1CN(C)Cc1ccc(C(F)(F)F)cc1	active: 31.3%
O=C(C[C@@H]1C[C@@H]2c3cc(NC(=O)Nc4ccc(C(F)(F)F)cc4)ccc3O[C@@H]2[C@@H](CO)O1)NC1CCCCC1	inconclusive: 26.8%
C[C@@H]1CN([C@@H](C)CO)C(=O)c2cc(NC(=O)CCC(F)(F)F)ccc2O[C@@H]1CN(C)Cc1ccc(C(F)(F)F)cc1	inconclusive: 30.6%

Continued:

Structure (SMILES)	CPE inhibition
CCC(=O)Nc1ccc2c(c1)C(=O)N(C)[C@@H]1CC[C@H](CC(=O)Nc3cccc(OC)c3)O[C@@H]1CO2	inconclusive: 64.3%
Cc1cccc(Nc2ccc(S(=O)(=O)N3CCOCC3)cc2[N+](=O)[O-])c1	inconclusive: 23.8%
CO[C@@H]1CN(C)C(=O)c2ccc(NC(=O)NC(C)C)cc2OC[C@H](C)N(C(=O)CC2CC2)C[C@H]1C	active: 32.4%
COc1ccc2c3c(n(C)c2c1)[C@@H](CO)N(CC1CCOCC1)CC31CCN(C(=O)Nc2ccccc2)CC1	inactive: 13.3%
Cc1ccc(S(=O)(=O)NC(=O)COc2ccc([N+](=O)[O-])cc2)cc1	inconclusive: 31.6%
COc1ccc(Nc2c(-c3cccc(OC)c3)nc3nc(C)cc(C)n23)cc1	inactive: 7.21%
O=C(N[C@@H]1CC[C@@H](CCn2cc(C3CC3)nn2)O[C@H]1CO)c1cccnc1	inactive: -6.37%
C[C@H]1CCCCO[C@H](CN(C)C(=O)Nc2ccc(C(F)(F)F)cc2)[C@@H](C)CN([C@@H](C)CO)C(=O)c2cc(NC(=O)C3CCCCC3)ccc2O1	active: 87.5%
CCCNC(=O)N(C)C[C@H]1Oc2cc(C3=CCCC3)ccc2S(=O)(=O)N([C@H](C)CO)C[C@H]1C	active: 29.7%
CC(C)CC#Cc1ccc([C@H]2[C@@H](CO)N3C(=O)CN(C(=O)c4cnccn4)C[C@@H]23)cc1	inconclusive: 20.4%
CCC(=O)Nc1ccc2c(c1)OC[C@H](C)N(C(=O)C1CCC1)C[C@@H](C)[C@@H](OC)CN(C)C2=O	inactive: -5.63%
C#CCOCCOCCOCCNc1nc(N2CCN(C(=O)[C@H]([C@@H](C)O)n3cc(CCCCN)nn3)CC2)nc(N2CCN(C(=O)[C@H](CCCCN)n3cc(CCCC)nn3)CC2)n1	inconclusive: 23.8%
CCCN1[C@H](C(=O)N[C@@H](C)c2ccccc2)[C@@H](CO)[C@@H]2Cn3c(ccc(-c4ccc(F)cc4)c3=O)[C@@H]21	inconclusive: 31.3%
CCC(=O)Nc1ccc2c(c1)C(=O)N(C)[C@@H]1CC[C@H](CC(=O)NC3Cc4ccccc4C3)O[C@H]1CO2	inconclusive: 56.3%
Cc1[nH]c2ccc(F)cc2c1CCN(Cc1ccncc1)C(=S)Nc1ccccc1	inconclusive: 35.7%
O=C(C[C@H]1C=C[C@H](NS(=O)(=O)c2ccccc2)[C@@H](CO)O1)N1CCc2ccccc2C1	inactive: -2.5%
O=C(NCc1ccc(Cl)cc1)C(=O)NCC(c1cccnc1)N1CCN(c2ccc(F)cc2)CC1 (stereo unspecified)	inactive: -0.119%
COCC(=O)Nc1ccc2c(c1)C(=O)N(C)[C@H]1CC[C@@H](CC(=O)NCCCN(C)C)O[C@@H]1CO2	inconclusive: 29.1%
CC(=O)c1ccc(-c2ccc(C(=O)N(C)c3c(N)n(Cc4ccccc4)c(=O)[nH]c3=O)o2)cc1	inconclusive: 24%
COc1ccc(-c2ccc3c(c2)S(=O)(=O)c2cccc(C(=O)NC4CCCC4)c2C3=O)cc1OC	inconclusive: 29.8%
COc1ccc(C(=O)NNC(=O)CN2CCC(n3nnc4cc(C)ccc43)CC2)cc1	inconclusive: 73.1%
CCCCCn1c(NCc2ccco2)nc2ccccc21	inconclusive: 26.4%
C[C@@H]1CN([C@H](C)CO)C(=O)c2cccc(NC(=O)C3CC3)c2O[C@@H]1CN(C)C(=O)Nc1ccc(F)cc1	inactive: 12.1%
